Source: PubChem BioAssay AID2685 (National Center for Advancing Translational Sciences (NCATS), 2010)
About 2,100 (0.66%) of roughly 320,000 compounds were called active. The inconclusive results got no clear call from the source; some entries with a clear call stand among them for comparison. The call rests on the fitted dose curve; in most records, active means well fitted inhibition curve with a large enough effect in the signal ratio, with a control signal flat (not every such curve was filed as active); inconclusive means small, poorly fitted or top-dose-only effect, or effect the other way, or a change in a side signal; inactive means flat fitted curve, though single readings scatter; the % refers to the signal ratio. A potency beside an inconclusive call is a rough fit, not a confirmed value.

Assay: qHTS Assay for Lipid Storage Modulators in Drosophila S3 Cells
Settings: BODIPY lipid droplet fluorescence, 18-24 h, cells fed with added oleic acid; lipid storage change, negative = inhibition: at 46.1 µM (top of the series) unless noted
Procedure, shortened: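 Drosophila S3 cells got compounds at several concentrations plus oleic acid (400 uM solution). Laser-scanning cytometry with 488 nm excitation read lipid droplets at 500-530 nm and cells at 575-640 nm. Percent activity was relative to 20 uM Triacsin C.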
On the % scale 0 is the no-effect control and ±100 the full control effect; potency means the concentration at half of the fitted maximal effect.

Row | SMILES | lipid storage change, negative = inhibition | outcome | Potency
1 | Cc1ccc(NCCC(=O)c2ccc(Br)cc2)cc1 | inconclusive: -19% |  | 
2 | COc1ccc(Cl)cc1NC(=O)c1ocnc1C | inconclusive: -11.5% |  | 
3 | Cc1ccc(C(C[N+](=O)[O-])n2nc(C)cc2C)cc1 (stereo unspecified) |  | inactive [at 46.1 µM] | 
4 | Cc1ccc(Nc2c([N+](=O)[O-])c(=O)oc3ccccc23)cc1C | inconclusive: 16.2% |  | 
5 | Cc1ccc(C(=O)Nc2nc(-c3ccccn3)cs2)o1 | inconclusive: -21% |  | 
6 | COc1ccc(S(=O)(=O)NCCC(=O)N2CCCN(C)CC2)cc1 | inconclusive: 6.11% |  | 
7 | O=C(OCc1c(-c2ccccc2)ncc2ccccc12)N1CCOCC1 | inconclusive: 11.6% |  | 
8 | COc1cccc(CN(C)CC(=O)Nc2cccc(S(N)(=O)=O)c2)c1OC |  |  | inconclusive: 2.59 µM [activator, full curve]
9 | CC(=O)Nc1ccc(NC(=O)C(C)OC(=O)CCCOc2ccc(Cl)cc2C)cc1 (stereo unspecified) |  |  | inconclusive: 6.51 µM [falling, single point]
10 | CCOC(=O)C1CCN(S(=O)(=O)c2cccc(C(=O)Nc3ccccc3)c2)CC1 | inconclusive: -3.75% |  | 
11 | COc1ccccc1N1CCN(CCCNC(=O)Cn2ncc3c([nH]c4ccccc43)c2=O)CC1 | inconclusive: 21.2% |  | 
12 | CSc1ccc(S(=O)(=O)N2CCC(C(=O)N3CCc4ccccc4C3)CC2)cc1 |  |  | inconclusive: 29.1 µM [falling, single point]
13 | CCC1(C)Cc2c(sc(NC(=O)CCC(=O)O)c2C#N)CO1 (stereo unspecified) | inconclusive: -11.4% |  | 
14 | CC1CCCC(NC(=O)CN2C(=O)COc3ccccc32)C1C (stereo unspecified) |  |  | inconclusive: 29.1 µM [activator, single point]
15 | COc1c(C)cc(Br)cc1C(=O)Nc1ccc(Cc2ccncc2)cc1 | inconclusive: -16% |  | 
16 | O=C(c1ccc(Cl)c(S(=O)(=O)N2CCCCC2)c1)N1CCN(Cc2ccccc2)CC1 | inconclusive: 7.05% |  | 
17 | Cc1cccc([C@@H]2[C@@H]3C(=O)N(Cc4ccccc4)C(=O)[C@@H]3[C@]3(C)C(=O)N(c4ccc(Br)cc4)C(=O)N23)c1 |  |  | active: 2.31 µM
18 | CC(C)(C)c1cc(=O)[nH]c(SCc2ccccc2Cl)n1 | inconclusive: -13.3% |  | 
19 | O=S(=O)(Nc1ncccn1)c1cc(Cl)ccc1Cl | inconclusive: -14.6% |  | 
20 | COc1ccc(CCNC(=O)Nc2cc(F)c(F)cc2Cl)cc1OC |  |  | inconclusive: 11.6 µM [falling, single point]
21 | CC(=O)Nc1ccc(NC(=O)C(C)OC(=O)C2CC(=O)N(CCc3ccccc3)C2)cc1 (stereo unspecified) | inconclusive: -2.91% |  | 
22 | O=C(Nc1cc(Cl)ccc1O)C1CCCO1 (stereo unspecified) | inconclusive: -10.6% |  | 
23 | COC(=O)CN(C)C(=O)c1cccc(OC2CCN(S(=O)(=O)N(C)C)CC2)c1 | inconclusive: 88.7% |  | 
24 | CCOc1ccc(S(=O)(=O)N2CCCCC2)cc1NC(=O)CCc1ccc(OC)cc1 |  |  | inconclusive: 16.4 µM [falling, single point]
25 | Cc1nc2cc(NC(=O)c3ccc(Br)s3)ccc2s1 | inconclusive: -32% |  | 
26 | COC(=O)c1ccc(Cl)c(NC(=O)CN2CCOCC2)c1 | inactive: -3.77% |  | 

Row | SMILES | lipid storage change, negative = inhibition | outcome | Potency
27 | CC1CCN(S(=O)(=O)c2ccc(Br)s2)CC1 | inconclusive: 5.86% |  | 
28 | Cc1c(C2N3CC4(C)CN2CC(C)(C3)C4=O)c2ccccc2n1C (stereo unspecified) | inconclusive: -7.9% |  | 
29 | CC(C)c1ccc(/C=N/NC(=O)c2ccc(-n3cnnn3)cc2)cc1 | inconclusive |  | 
30 | CC(=O)c1cccc(NC(=O)C2=CC(c3ccco3)=NS(=O)(=O)N2C)c1 |  |  | inconclusive: 25.9 µM [activator, single point]
31 | COc1cccc(NC(=O)CSc2nncn2N)c1 | inconclusive: -19.5% |  | 
32 | CN(CCOc1ccc(-c2ccn(S(=O)(=O)c3c(Cl)cccc3Cl)n2)cc1)c1ccccn1 |  |  | inconclusive: 1.46 µM [activator, full curve]
33 | CCN(C(=O)c1cn(C)c(=O)c2cc(OC)c(OC)cc12)c1cc(C)ccc1C | inconclusive: 22.1% |  | 
34 | COc1ccccc1C(=O)O/N=C(\N)c1ccccc1Cl | inconclusive: 7.34% |  | 
35 | CC12CCC(C(=O)N(c3ccccn3)c3ccccn3)(OC1=O)C2(C)C (stereo unspecified) | inconclusive: 18.5% |  | 
36 | O=C(CSCc1ccc(Cl)cc1)Nc1ccc2c(c1)OCCO2 | inconclusive: -7.14% |  | 
37 | COc1cc([N+](=O)[O-])ccc1NC(=O)NCc1ccccn1 | inconclusive: -47.4% |  | 
38 | CN(C(=O)CS(=O)(=O)c1cccc(Cl)c1)c1ccccc1 | inconclusive: -31.1% |  | 
39 | Cc1ccc(C(=O)O)cc1-n1c(=O)n(Cc2ccccc2)c(=O)c2[nH]cnc21 | inconclusive: 373% |  | 
40 | CCC(=O)/C=C1\Sc2ccccc2N1CC | inconclusive: 7.96% |  | 
41 | CC1CC(C)CN(C(=O)c2ccc(NS(=O)(=O)c3ccc4[nH]c(=O)[nH]c4c3)cc2)C1 (stereo unspecified) | inconclusive: -80.3% [at 0.0737 µM] |  | 
42 | O=C(O)c1ccccc1C(=O)NC1CCCc2ccccc21 (stereo unspecified) | inconclusive: -35.2% |  | 
43 | O=C(NCCCn1ccnc1)c1ccco1 |  |  | inconclusive: 2.31 µM [falling, partial curve, poor fit]
44 | Cc1cc(C(=O)NNC(=O)c2c(-c3c(Cl)cccc3Cl)noc2C)no1 | inconclusive: -5.52% |  | 
45 | O=S(=O)(Nc1ccccc1Cl)c1ccc(NS(=O)(=O)c2cccs2)cc1 | inconclusive: -4.33% |  | 
46 | CN(Cc1ccccc1)C(=O)c1ccccc1NC(=O)c1ccccc1 | inconclusive: 7.92% |  | 
47 | C=CCOc1cccc(C2C(C(=O)c3cc4ccccc4o3)=C(O)C(=O)N2c2cc(C)on2)c1 (stereo unspecified) | inconclusive: 108% |  | 
48 | CCC(C(=O)NCCCN1CC(C)CC(C)C1)n1nc(C)c2sc3ccccc3c2c1=O (stereo unspecified) |  |  | inconclusive: 29.1 µM [activator, single point]
49 | CS(=O)(=O)c1ccc(Cl)c(NC(=O)c2cccc(N3C(=O)CCC3=O)c2)c1 | inconclusive: -1.57% |  | 
50 | COCCNC(=O)COc1ccc(C)cc1C | inconclusive: 25.1% |  | 
51 | COc1ccc(OC)c(S(=O)(=O)Nc2ccc3c(c2)N(C(C)=O)CCC3)c1 | inconclusive: -29.9% [at 0.0737 µM] |  | 

Some of the entries so far, as labelled records.
CN(CCOc1ccc(-c2ccn(S(=O)(=O)c3c(Cl)cccc3Cl)n2)cc1)c1ccccn1
  Potency: inconclusive: 1.46 µM [activator, full curve]
CC12CCC(C(=O)N(c3ccccn3)c3ccccn3)(OC1=O)C2(C)C (stereo unspecified)
  lipid storage change, negative = inhibition: inconclusive: 18.5%
